# The list shows a part of the results.
# B1: SHCBP1-GST (Homo sapiens), Q8NEM2 (protein)
# chain: MADGSLTGGGLEAAAMAPERMGWAVEQELASLEKGLFQDEDSCSDCSYRDKPGSSLQSFMPEGKTFFPEIFQTNQLLFYERFRAYQDYILADCKASEVQEFTAEFLEKVLEPSGWRAVWHTNVFKVLVEITDVDFAALKAVVRLAEPYLCDSQVSTFTMECMKELLDLKEHRLPLQELWVVFDDSGVFDQTALAIEHVRFFYQNIWRSWDEEEEDEYDYFVRCVEPRLRLHYDILEDRVPSGLIVDYHNLLSQCEESYRKFLNLRSSLSNCNSDSEQENISMVEGLKLYSEMEQLKQKLKLIENPLLRYVFGYQKNSNIQAKGVRSSGQKITHVVSSTMMAGLLRSLLTDRLCQEPGEEEREIQFHSDPLSAINACFEGDTVIVCPGHYVVHGTFSIADSIELEGYGLPDDIVIEKRGKGDTFVDCTGADIKISGIKFVQHDAVEGILIVHRGKTTLENCVLQCETTGVTVRTSAEFLMKNSDLYGAKGAGIEIYPGSQCTLSDNGIHHCKEGILIKDFLDEHYDIPKISMVNNIIHNNEGYGVVLVKPTIFSDLQENAEDGTEENKALKIQTSGEPDVAERVDLEELIECATGKMELCARTDPSEQVEGNCEIVNELIAASTQKGQIKKKRLSELGITQADDNLMSQEMFVGIVGNQFKWNGKGSFGTFLF
# How the values were obtained:
# Experiment in all cases: glycan array binding signal (z-score within array); higher = stronger binding
# Settings in all cases: glycan notation: IUPAC condensed, linker removed
# [1] = target: Gal(b1-4)GalNAc(b1-3)[Fuc(a1-2)]Gal(b1-4)GlcNAc
# How it was run: (§1)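 Negative Z-scores can be read as non-binding. The Z-score is calculated within each array and then averaged across arrays of one protein sequence at different concentrations or buffers and across linkers. Arrays, 3228 in all, were curated from the Consortium for Functional Glycomics database and kept only where the protein sequence was available.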
# Gal(b1-4)Glc = target: Gal(b1-4)Glc
# How it was run: as §1
# Gal(b1-4)Glc6S = target: Gal(b1-4)Glc6S
# How it was run: as §1
# Gal(b1-4)GlcNAc = target: Gal(b1-4)GlcNAc
# How it was run: as §1
# [2] = target: Gal(b1-4)GlcNAc(a1-6)Gal(b1-4)GlcNAc
# How it was run: as §1
# Gal(b1-4)GlcNAc(b1-2)Man = target: Gal(b1-4)GlcNAc(b1-2)Man
# How it was run: as §1
# [3] = target: Gal(b1-4)GlcNAc(b1-2)Man(a1-3)Man(b1-4)GlcNAc(b1-4)GlcNAc
# How it was run: as §1
# [4] = target: Gal(b1-4)GlcNAc(b1-2)Man(a1-3)[Gal(b1-4)GlcNAc(b1-2)Man(a1-6)]Man(b1-4)GlcNAc(b1-4)GlcNAc
# How it was run: as §1
# [5] = target: Gal(b1-4)GlcNAc(b1-2)Man(a1-3)[Gal(b1-4)GlcNAc(b1-2)Man(a1-6)]Man(b1-4)GlcNAc(b1-4)[Fuc(a1-6)]GlcNAc
# How it was run: as §1
# [6] = target: Gal(b1-4)GlcNAc(b1-2)Man(a1-3)[Gal(b1-4)GlcNAc(b1-2)Man(a1-6)][Gal(b1-4)GlcNAc(b1-4)]Man(b1-4)GlcNAc(b1-4)[Fuc(a1-6)]GlcNAc
# How it was run: as §1
# [7] = target: Gal(b1-4)GlcNAc(b1-2)Man(a1-3)[Gal(b1-4)GlcNAc(b1-2)Man(a1-6)][GlcNAc(b1-4)]Man(b1-4)GlcNAc(b1-4)[Fuc(a1-6)]GlcNAc
# How it was run: as §1
# [8] = target: Gal(b1-4)GlcNAc(b1-2)Man(a1-3)[GlcNAc(b1-2)Man(a1-6)]Man(b1-4)GlcNAc(b1-4)GlcNAc
# How it was run: as §1
# [9] = target: Gal(b1-4)GlcNAc(b1-2)Man(a1-3)[GlcNAc(b1-4)][Gal(b1-4)GlcNAc(b1-2)Man(a1-6)]Man(b1-4)GlcNAc(b1-4)GlcNAc
# How it was run: as §1
# [10] = target: Gal(b1-4)GlcNAc(b1-2)Man(a1-3)[Man(a1-6)]Man(b1-4)GlcNAc(b1-4)GlcNAc
# How it was run: as §1
# [11] = target: Gal(b1-4)GlcNAc(b1-2)Man(a1-6)Man(b1-4)GlcNAc(b1-4)GlcNAc
# How it was run: as §1
# [12] = target: Gal(b1-4)GlcNAc(b1-2)Man(a1-6)[GlcNAc(b1-2)Man(a1-3)]Man(b1-4)GlcNAc(b1-4)GlcNAc
# How it was run: as §1
# [13] = target: Gal(b1-4)GlcNAc(b1-2)Man(a1-6)[Man(a1-3)]Man(b1-4)GlcNAc(b1-4)GlcNAc
# How it was run: as §1
# [14] = target: Gal(b1-4)GlcNAc(b1-2)[Gal(b1-4)GlcNAc(b1-4)]Man(a1-3)[Gal(b1-4)GlcNAc(b1-2)Man(a1-6)]Man(b1-4)GlcNAc(b1-4)GlcNAc
# How it was run: as §1
# [15] = target: Gal(b1-4)GlcNAc(b1-2)[Gal(b1-4)GlcNAc(b1-4)]Man(a1-3)[Gal(b1-4)GlcNAc(b1-2)[Gal(b1-4)GlcNAc(b1-6)]Man(a1-6)]Man(b1-4)GlcNAc(b1-4)GlcNAc
# How it was run: as §1
# [16] = target: Gal(b1-4)GlcNAc(b1-2)[Gal(b1-4)GlcNAc(b1-4)]Man(a1-3)[GlcNAc(b1-4)][Gal(b1-4)GlcNAc(b1-2)Man(a1-6)]Man(b1-4)GlcNAc(b1-4)GlcNAc
# How it was run: as §1
# [17] = target: Gal(b1-4)GlcNAc(b1-2)[Gal(b1-4)GlcNAc(b1-4)]Man(a1-3)[GlcNAc(b1-4)][Gal(b1-4)GlcNAc(b1-2)[Gal(b1-4)GlcNAc(b1-6)]Man(a1-6)]Man(b1-4)GlcNAc(b1-4)GlcNAc
# How it was run: as §1
# [18] = target: Gal(b1-4)GlcNAc(b1-2)[Gal(b1-4)GlcNAc(b1-6)]Man(a1-6)[Gal(b1-4)GlcNAc(b1-2)Man(a1-3)]Man(b1-4)GlcNAc(b1-4)GlcNAc
# How it was run: as §1
# [19] = target: Gal(b1-4)GlcNAc(b1-2)[Gal(b1-4)GlcNAc(b1-6)]Man(a1-6)[Gal(b1-4)GlcNAc(b1-2)Man(a1-3)]Man(b1-4)GlcNAc(b1-4)[Fuc(a1-6)]GlcNAc
# How it was run: as §1
# [20] = target: Gal(b1-4)GlcNAc(b1-2)[Gal(b1-4)GlcNAc(b1-6)]Man(a1-6)[GlcNAc(b1-4)][Gal(b1-4)GlcNAc(b1-2)Man(a1-3)]Man(b1-4)GlcNAc(b1-4)GlcNAc
# How it was run: as §1
# [21] = target: Gal(b1-4)GlcNAc(b1-2)[Gal(b1-4)GlcNAc(b1-6)]Man(a1-6)[GlcNAc(b1-4)][Gal(b1-4)GlcNAc(b1-2)[Gal(b1-4)GlcNAc(b1-4)]Man(a1-3)]Man(b1-4)GlcNAc(b1-4)[Fuc(a1-6)]GlcNAc
# How it was run: as §1
# [22] = target: Gal(b1-4)GlcNAc(b1-3)Gal(b1-3)GalNAc
# How it was run: as §1
# [23] = target: Gal(b1-4)GlcNAc(b1-3)Gal(b1-3)GlcNAc
# How it was run: as §1
# [24] = target: Gal(b1-4)GlcNAc(b1-3)Gal(b1-4)Glc
# How it was run: as §1
# [25] = target: Gal(b1-4)GlcNAc(b1-3)Gal(b1-4)GlcNAc
# How it was run: as §1
# [26] = target: Gal(b1-4)GlcNAc(b1-3)Gal(b1-4)GlcNAc(b1-2)Man(a1-3)[Gal(b1-4)GlcNAc(b1-3)Gal(b1-4)GlcNAc(b1-2)Man(a1-6)]Man(b1-4)GlcNAc(b1-4)GlcNAc
# How it was run: as §1
binder,measurement,setting,value
B1,glycan array binding signal (z-score),[1],-0.953
same,glycan array binding signal (z-score),Gal(b1-4)Glc,0.02
same,glycan array binding signal (z-score),Gal(b1-4)Glc6S,-0.107
same,glycan array binding signal (z-score),Gal(b1-4)GlcNAc,-0.166
same,glycan array binding signal (z-score),[2],-0.736
same,glycan array binding signal (z-score),Gal(b1-4)GlcNAc(b1-2)Man,0.293
same,glycan array binding signal (z-score),[3],-0.705
same,glycan array binding signal (z-score),[4],1.64
same,glycan array binding signal (z-score),[5],0.409
same,glycan array binding signal (z-score),[6],-0.811
same,glycan array binding signal (z-score),[7],-1.17
same,glycan array binding signal (z-score),[8],0.361
same,glycan array binding signal (z-score),[9],-0.882
same,glycan array binding signal (z-score),[10],0.6
same,glycan array binding signal (z-score),[11],-0.665
same,glycan array binding signal (z-score),[12],-0.694
same,glycan array binding signal (z-score),[13],-0.509
same,glycan array binding signal (z-score),[14],-0.348
same,glycan array binding signal (z-score),[15],-0.974
same,glycan array binding signal (z-score),[16],0.176
same,glycan array binding signal (z-score),[17],-0.369
same,glycan array binding signal (z-score),[18],0.147
same,glycan array binding signal (z-score),[19],5.01
same,glycan array binding signal (z-score),[20],-0.751
same,glycan array binding signal (z-score),[21],-0.032
same,glycan array binding signal (z-score),[22],-0.645
same,glycan array binding signal (z-score),[23],-0.681
same,glycan array binding signal (z-score),[24],0.172
same,glycan array binding signal (z-score),[25],0.516
same,glycan array binding signal (z-score),[26],1.68

# Laid out differently: entries from further up.
binder	measurement	setting	value
B1	glycan array binding signal (z-score)	[21]	-0.032
same	glycan array binding signal (z-score)	[22]	-0.645
